Some of these results come from one statement about several compounds together.
Experiments:
Format in all cases: cell-based
[1] = test system: A549 human alveolar epithelial cell; assay: Growth inhibition (cytotoxicity), A549 assay, Cell Titer Glo; conditions: A549 cells, 72 hour incubation
Experimental: (§1) The cytotoxicity of each of the MC compounds as described herein was evaluated in the following cell types: A549 human alveolar epithelial cell, PC3 human prostate carcinoma cell, COLO205 human colon adenocarcinoma cell, HEPG2 human hepatoma, OVCAR3 human ovary adenocarcinoma cell, and HL60 human acute myelocytic leukemia (AML) cell.
(§2) A549, PC3, COLO205 and HEPG2 cells were cultured in DMEM (Invitrogen Corporation) with 10% fetal bovine serum, whereas OVCAR3 and HL60 were cultured in the same medium but with 20% fetal bovine serum. For cytotoxocoty measurements the cells were seeded in 96 or 384 well tissue culture treated microtitre plates overnight. Compounds were diluted in appropriate buffers and added to the cells the next day. Following a further 72 hour incubation, cell viability was determined using Cell Titer Glo (Promega Corporation) according to the manufacturers' instructions, and the luminescence measured in Luminoskan Ascent (Thermo Fisher Scientific Inc.).

[2] = test system: HL60 human acute myelocytic leukemia (AML) cell; assay: Growth inhibition (cytotoxicity), HL60A assay, Cell Titer Glo; conditions: HL60 cells, 72 hour incubation
Experimental: as §1, §2

[3] = test system: OVCAR3 human ovary adenocarcinoma cell; assay: Growth inhibition (cytotoxicity), OVCAR3 assay, Cell Titer Glo; conditions: OVCAR3 cells, 72 hour incubation
Experimental: as §1, §2

[4] = test system: PC3 human prostate carcinoma cell; assay: Growth inhibition (cytotoxicity), PC3A assay, Cell Titer Glo; conditions: PC3 cells, 72 hour incubation
Experimental: as §1, §2

Row | SMILES | IC50 [1] | IC50 [2] | IC50 [3] | IC50 [4]
1 | CC[C@H](OC)[C@@H](C)[C@H]1O[C@@H]1C(NCc1ccc(N2CC(C)OC(C)C2)cc1)C(C)(O)/C=C/C=C(\C)C1OC(=O)C[C@H](O)CC[C@@](C)(O)[C@@H](OC(C)=O)/C=C/[C@@H]1C (single isomer, unassigned) [MC-042b] | ≤ 1000 nM | – | – | –
2 | CC[C@H](OC)[C@@H](C)[C@H]1O[C@@H]1C(NCc1ccc(Cl)cc1)C(C)(O)/C=C/C=C(\C)C1OC(=O)C[C@H](O)CC[C@@](C)(O)[C@@H](OC(C)=O)/C=C/[C@@H]1C (single isomer, unassigned) [MC-016b] | – | ≤ 100 nM | ≤ 100 nM | ≤ 100 nM
3 | CC[C@H](OC)[C@@H](C)[C@H]1O[C@@H]1C(NCc1ccc(N2CCCOCC2)cc1)C(C)(O)/C=C/C=C(\C)C1OC(=O)C[C@H](O)CC[C@@](C)(O)[C@@H](OC(C)=O)/C=C/[C@@H]1C (single isomer, unassigned) [MC-055b] | ≤ 1000 nM | – | – | –
4 | CC[C@H](OC)[C@@H](C)[C@H]1O[C@@H]1C(NCc1ccccc1OC)C(C)(O)/C=C/C=C(\C)C1OC(=O)C[C@H](O)CC[C@@](C)(O)[C@@H](OC(C)=O)/C=C/[C@@H]1C (single isomer, unassigned) [MC-028a] | ≤ 1000 nM | – | – | –
5 | CC[C@H](OC)[C@@H](C)[C@H]1O[C@@H]1C(NCc1ccc2[nH]ccc2c1)C(C)(O)/C=C/C=C(\C)C1OC(=O)C[C@H](O)CC[C@@](C)(O)[C@@H](OC(C)=O)/C=C/[C@@H]1C (single isomer, unassigned) [MC-043b] | ≤ 1000 nM | – | – | –
6 | CC[C@H](OC)[C@@H](C)[C@H]1O[C@@H]1C(NCc1ccc(F)cc1)C(C)(O)/C=C/C=C(\C)C1OC(=O)C[C@H](O)CC[C@@](C)(O)[C@@H](OC(C)=O)/C=C/[C@@H]1C (single isomer, unassigned) [MC-006a] | – | ≤ 100 nM | – | ≤ 100 nM

From patent US20110237566A1, “Therapeutic Macrolide Compounds and Their Use” (MERLION PHARMACEUTICALS PTE LTD, priority 2008, published 2011)
